In US20250019435A1:
No constants are given. Whether binding was seen depends on the method and setting. Some entries that bind do so weakly or less than the wild type. Sequences can lack the tags named with a protein.

Amino acid sequences for entries named in this document (tags omitted). A change or cut given only in a name is not applied to a line headed by its entry. Residues count along the entry.
UniProt Q8N109: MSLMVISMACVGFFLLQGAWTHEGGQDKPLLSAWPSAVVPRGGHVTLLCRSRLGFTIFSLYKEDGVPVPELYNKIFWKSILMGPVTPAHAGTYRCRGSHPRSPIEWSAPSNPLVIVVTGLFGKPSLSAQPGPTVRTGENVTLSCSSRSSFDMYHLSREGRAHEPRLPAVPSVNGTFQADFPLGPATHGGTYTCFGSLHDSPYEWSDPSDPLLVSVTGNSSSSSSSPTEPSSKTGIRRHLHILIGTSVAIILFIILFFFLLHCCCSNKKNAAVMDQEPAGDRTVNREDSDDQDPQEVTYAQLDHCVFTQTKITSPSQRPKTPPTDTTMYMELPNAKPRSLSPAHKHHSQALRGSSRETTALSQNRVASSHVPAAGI
UniProt Q8N743, residues 26-410: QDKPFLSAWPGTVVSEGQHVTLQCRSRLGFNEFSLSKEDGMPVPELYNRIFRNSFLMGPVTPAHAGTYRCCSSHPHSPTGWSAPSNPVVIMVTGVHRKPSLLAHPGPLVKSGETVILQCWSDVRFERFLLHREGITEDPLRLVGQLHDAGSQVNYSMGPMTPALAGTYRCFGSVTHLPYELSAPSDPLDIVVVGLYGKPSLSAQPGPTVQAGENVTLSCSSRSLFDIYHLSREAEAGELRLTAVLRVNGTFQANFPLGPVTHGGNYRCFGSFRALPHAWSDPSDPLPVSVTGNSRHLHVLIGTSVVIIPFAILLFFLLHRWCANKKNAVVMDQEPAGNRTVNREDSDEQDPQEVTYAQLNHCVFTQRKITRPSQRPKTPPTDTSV

Assays:
[1] = target: T1, PVR expressed on transduced cells (PVR-YFP) (UniProt P15151); test: flow cytometry, KIR2DL5-Ig on PVR/3T3 cells preincubated with His-tagged receptors
T1 sequence (looked up): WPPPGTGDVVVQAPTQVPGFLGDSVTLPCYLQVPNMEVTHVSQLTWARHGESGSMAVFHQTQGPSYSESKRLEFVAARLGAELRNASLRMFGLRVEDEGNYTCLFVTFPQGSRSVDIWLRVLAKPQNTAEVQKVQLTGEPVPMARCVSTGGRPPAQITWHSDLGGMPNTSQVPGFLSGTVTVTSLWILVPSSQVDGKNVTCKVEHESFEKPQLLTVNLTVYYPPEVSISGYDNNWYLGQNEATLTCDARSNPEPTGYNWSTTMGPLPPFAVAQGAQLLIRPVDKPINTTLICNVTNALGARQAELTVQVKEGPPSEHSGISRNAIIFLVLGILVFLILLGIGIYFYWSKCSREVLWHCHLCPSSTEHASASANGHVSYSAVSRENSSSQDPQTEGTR

[2] = target: T1, PVR expressed on transduced cells (PVR-YFP); test: flow cytometry, PVR-YFP/3T3 preincubated with the His-tagged proteins, then KIR2DL5-Ig 20 µg/mL
[3] = target: T1, PVR expressed on transduced cells (PVR-YFP); test: intercellular conjugate assay, flow cytometry
[4] = target: T1, PVR expressed on transduced cells (PVR-YFP); test: intercellular conjugate assay, PVR/3T3 with KIR3DL3/3T3 (negative control)
[5] = target: T1, PVR expressed on transduced cells (PVR-YFP); test: intercellular conjugate assay, PKH26-labelled KIR3DL3/3T3 with eFluor450-labelled PVR/3T3, flow cytometry

binding [1] | binding [2] | binding [3] | binding [4] | binding [5] | Substance
binds | binds | – | – | – | KIR2DL5-Ig fusion protein (KIR2DL5 extracellular domain fused to human IgG1 Fc) (from UniProt Q8N109 22-240) (Fc fusion)
– | – | no binding | no binding | no binding | KIR3DL3 expressed on 3T3 cells (from UniProt Q8N743 26-410) (receptor)
